Positions count from the first letter of the chain named. Names may count otherwise. Results are given in words; binding and its absence hold for the method and conditions named. Binding seen in cells or lysates may run through a third protein. Some entries that bind do so weakly or less than the wild type. Tags and fused reporters may be left off the sequences shown. One block for each molecule: values may come before it.
What was measured:
[1] = molecular target: T1, human CASTOR1 wild type (Flag-CASTOR1 WT) (human) (UniProt Q8WTX7); assay: co-immunoprecipitation, MCF7 cells (FIG. 13B)
T1 sequence (looked up): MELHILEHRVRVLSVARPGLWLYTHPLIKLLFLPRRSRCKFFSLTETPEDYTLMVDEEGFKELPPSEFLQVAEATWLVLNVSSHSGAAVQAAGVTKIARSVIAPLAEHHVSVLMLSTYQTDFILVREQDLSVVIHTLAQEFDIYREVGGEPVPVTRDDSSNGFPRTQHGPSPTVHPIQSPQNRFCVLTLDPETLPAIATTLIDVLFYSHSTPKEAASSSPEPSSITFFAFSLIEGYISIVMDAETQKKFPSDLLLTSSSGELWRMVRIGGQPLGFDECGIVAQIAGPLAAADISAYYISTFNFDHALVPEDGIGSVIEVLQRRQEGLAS

Amino acid sequences for entries named in this document (tags omitted). A change or cut given only in a name is not applied to a line headed by its entry. Residues count along the entry.
UniProt P31749: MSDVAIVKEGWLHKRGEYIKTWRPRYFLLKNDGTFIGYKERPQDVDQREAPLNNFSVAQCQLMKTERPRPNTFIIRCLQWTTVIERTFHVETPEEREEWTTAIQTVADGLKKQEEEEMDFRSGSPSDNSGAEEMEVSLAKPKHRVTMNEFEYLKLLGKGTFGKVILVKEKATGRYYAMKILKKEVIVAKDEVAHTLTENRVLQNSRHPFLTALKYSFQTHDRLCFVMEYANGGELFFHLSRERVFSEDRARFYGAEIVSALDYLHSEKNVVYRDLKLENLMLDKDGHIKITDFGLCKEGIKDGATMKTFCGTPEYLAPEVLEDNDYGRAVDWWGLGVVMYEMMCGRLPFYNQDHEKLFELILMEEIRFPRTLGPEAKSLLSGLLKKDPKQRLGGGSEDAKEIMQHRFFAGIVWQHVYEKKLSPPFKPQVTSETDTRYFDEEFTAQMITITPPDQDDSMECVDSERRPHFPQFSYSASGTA
AKT1 kinase domain: residues 120-433 of P31749

[2] = molecular target: AKT1 (ectopically expressed) (UniProt P31749); assay: co-immunoprecipitation and immunoblotting (FIGS. 8J-8M)
[3] = molecular target: AKT1 (ectopically expressed) (UniProt P31749); assay: co-immunoprecipitation, two experiments quantified (FIGS. 8J-8M)
[4] = molecular target: AKT1 (ectopically expressed) (UniProt P31749); assay: co-immunoprecipitation, MCF7 cells (FIG. 13B)
[5] = molecular target: AKT1 (ectopically expressed) (UniProt P31749); assay: co-immunoprecipitation and immunoblotting (FIGS. 8A-8F)
[6] = molecular target: AKT1 (ectopically expressed) (UniProt P31749); assay: co-immunoprecipitation and immunoblotting (FIGS. 8A, 8C)
AKT1 kinase domain [7] = molecular target: AKT1 kinase domain (UniProt P31749); assay: co-immunoprecipitation with AKT1 domain constructs (FIG. 8F)
AKT1 kinase domain [8] = molecular target: AKT1 kinase domain (UniProt P31749); assay: co-immunoprecipitation with AKT1 domain constructs (FIGS. 8E-8F)
[9] = molecular target: AKT1 (ectopically expressed) (UniProt P31749); assay: co-immunoprecipitation (discussion of Example 1)

Molecule: AKT1 (ectopically expressed) (from UniProt P31749 1-480) (enzyme)
- binding [1]: binds

B2: human CASTOR1 wild type (Flag-CASTOR1 WT) (other, UniProt Q8WTX7 1-329, looked up)
chain: T1 sequence (looked up)
notes: Expressed in cells and pulled down from lysates; also called HA-CASTOR1; cytosolic arginine sensor for mTORC1 subunit 1; not shown: N-terminal Flag tag
- binding [4]: binds
- binding [5]: binds
- binding [2]: binds
- binding [6]: binds
- binding (AKT1 kinase domain [7]): binds
- binding (AKT1 kinase domain [8]): binds

The next lines start with the values.

- binding [2]: binds
- binding [3]: binds
B1: human Flag-CASTOR1 S14A (protein, UniProt Q8WTX7 1-329, looked up, not shown: small tags and cut ends)
chain: T1 sequence (looked up) with S14A

- binding [9]: binds
- binding [2]: binds
- binding [3]: binds
B3: human Flag-CASTOR1 S14D (protein, UniProt Q8WTX7 1-329, looked up, not shown: small tags and cut ends)
chain: T1 sequence (looked up) with S14D
